Experimental findings from PMC9638028, “Yeast Smy2 and its human homologs GIGYF1 and -2 regulate Cdc48/VCP function during transcription stress” (Cell Reports, 2022) are described below.

Chains of the proteins cited; added tags and fusions are not shown.
UniProt P25694: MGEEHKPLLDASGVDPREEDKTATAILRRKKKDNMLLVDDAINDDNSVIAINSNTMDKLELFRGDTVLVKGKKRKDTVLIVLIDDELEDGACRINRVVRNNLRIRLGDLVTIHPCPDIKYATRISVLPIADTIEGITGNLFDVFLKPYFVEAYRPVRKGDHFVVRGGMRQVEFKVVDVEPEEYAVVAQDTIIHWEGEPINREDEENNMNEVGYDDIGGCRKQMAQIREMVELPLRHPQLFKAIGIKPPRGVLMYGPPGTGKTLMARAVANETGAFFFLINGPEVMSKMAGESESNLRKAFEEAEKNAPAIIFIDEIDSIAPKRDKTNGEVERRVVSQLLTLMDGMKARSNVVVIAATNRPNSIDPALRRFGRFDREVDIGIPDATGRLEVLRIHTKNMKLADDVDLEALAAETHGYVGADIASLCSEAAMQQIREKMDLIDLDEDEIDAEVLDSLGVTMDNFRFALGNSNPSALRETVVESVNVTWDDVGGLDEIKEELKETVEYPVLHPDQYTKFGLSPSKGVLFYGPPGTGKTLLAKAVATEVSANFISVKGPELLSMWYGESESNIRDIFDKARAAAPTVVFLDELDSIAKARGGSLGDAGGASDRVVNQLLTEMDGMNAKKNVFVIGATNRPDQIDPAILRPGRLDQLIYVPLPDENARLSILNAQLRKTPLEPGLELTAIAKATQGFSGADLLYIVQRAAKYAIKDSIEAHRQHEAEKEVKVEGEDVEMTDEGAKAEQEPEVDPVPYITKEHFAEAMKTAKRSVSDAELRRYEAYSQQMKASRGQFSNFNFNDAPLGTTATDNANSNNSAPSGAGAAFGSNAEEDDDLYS
UniProt P48415: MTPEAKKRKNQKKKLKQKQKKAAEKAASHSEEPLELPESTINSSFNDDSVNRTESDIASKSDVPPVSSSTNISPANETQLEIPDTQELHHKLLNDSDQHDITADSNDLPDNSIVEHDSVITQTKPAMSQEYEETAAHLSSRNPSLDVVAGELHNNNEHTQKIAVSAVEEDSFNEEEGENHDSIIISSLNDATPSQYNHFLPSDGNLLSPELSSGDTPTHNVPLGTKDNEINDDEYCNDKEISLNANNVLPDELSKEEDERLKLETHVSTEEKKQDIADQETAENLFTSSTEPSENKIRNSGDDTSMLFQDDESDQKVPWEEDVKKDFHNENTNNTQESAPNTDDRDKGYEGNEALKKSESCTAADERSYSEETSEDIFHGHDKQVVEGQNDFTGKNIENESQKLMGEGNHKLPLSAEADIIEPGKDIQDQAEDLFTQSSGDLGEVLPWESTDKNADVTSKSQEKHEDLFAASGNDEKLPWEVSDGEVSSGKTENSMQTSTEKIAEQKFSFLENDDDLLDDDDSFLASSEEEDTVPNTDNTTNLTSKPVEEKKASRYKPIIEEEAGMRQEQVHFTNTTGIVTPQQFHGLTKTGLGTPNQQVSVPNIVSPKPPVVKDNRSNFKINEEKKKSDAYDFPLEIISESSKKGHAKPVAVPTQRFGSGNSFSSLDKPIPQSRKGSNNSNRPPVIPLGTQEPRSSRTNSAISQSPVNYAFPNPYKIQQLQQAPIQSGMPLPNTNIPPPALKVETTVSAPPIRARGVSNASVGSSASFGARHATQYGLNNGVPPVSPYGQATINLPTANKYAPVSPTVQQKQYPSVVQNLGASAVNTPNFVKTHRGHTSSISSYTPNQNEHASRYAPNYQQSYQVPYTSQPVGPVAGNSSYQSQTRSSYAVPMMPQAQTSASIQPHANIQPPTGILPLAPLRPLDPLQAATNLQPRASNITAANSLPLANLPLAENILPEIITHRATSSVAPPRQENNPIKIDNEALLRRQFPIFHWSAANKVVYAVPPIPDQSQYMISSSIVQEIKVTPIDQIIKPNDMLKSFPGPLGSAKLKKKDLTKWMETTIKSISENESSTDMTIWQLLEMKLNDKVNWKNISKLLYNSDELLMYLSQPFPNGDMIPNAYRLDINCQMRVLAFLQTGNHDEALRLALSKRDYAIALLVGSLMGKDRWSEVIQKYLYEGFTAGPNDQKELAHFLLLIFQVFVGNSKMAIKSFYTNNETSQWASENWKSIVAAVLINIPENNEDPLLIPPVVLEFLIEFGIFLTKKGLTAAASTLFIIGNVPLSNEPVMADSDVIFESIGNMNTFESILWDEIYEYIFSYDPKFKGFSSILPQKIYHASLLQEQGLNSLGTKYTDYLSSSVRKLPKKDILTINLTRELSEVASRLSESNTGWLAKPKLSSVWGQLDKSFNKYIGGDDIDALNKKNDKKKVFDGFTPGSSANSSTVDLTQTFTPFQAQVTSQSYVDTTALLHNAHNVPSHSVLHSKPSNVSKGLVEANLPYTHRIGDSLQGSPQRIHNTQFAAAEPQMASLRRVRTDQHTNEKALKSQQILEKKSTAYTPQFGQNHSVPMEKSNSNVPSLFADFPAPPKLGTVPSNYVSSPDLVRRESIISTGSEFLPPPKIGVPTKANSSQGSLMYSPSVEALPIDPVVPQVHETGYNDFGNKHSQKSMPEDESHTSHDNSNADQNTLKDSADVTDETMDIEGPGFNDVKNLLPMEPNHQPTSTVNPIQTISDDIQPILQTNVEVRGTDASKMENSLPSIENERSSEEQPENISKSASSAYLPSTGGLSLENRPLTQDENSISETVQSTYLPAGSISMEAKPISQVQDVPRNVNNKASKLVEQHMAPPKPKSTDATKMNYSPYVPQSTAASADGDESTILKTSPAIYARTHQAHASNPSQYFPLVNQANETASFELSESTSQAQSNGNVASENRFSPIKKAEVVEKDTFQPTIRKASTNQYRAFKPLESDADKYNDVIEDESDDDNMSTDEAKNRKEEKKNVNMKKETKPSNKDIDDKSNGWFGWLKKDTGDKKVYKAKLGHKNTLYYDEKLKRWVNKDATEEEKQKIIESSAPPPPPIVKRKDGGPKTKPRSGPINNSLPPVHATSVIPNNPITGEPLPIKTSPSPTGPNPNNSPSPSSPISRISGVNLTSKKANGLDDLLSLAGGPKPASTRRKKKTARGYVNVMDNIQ
UniProt P19524: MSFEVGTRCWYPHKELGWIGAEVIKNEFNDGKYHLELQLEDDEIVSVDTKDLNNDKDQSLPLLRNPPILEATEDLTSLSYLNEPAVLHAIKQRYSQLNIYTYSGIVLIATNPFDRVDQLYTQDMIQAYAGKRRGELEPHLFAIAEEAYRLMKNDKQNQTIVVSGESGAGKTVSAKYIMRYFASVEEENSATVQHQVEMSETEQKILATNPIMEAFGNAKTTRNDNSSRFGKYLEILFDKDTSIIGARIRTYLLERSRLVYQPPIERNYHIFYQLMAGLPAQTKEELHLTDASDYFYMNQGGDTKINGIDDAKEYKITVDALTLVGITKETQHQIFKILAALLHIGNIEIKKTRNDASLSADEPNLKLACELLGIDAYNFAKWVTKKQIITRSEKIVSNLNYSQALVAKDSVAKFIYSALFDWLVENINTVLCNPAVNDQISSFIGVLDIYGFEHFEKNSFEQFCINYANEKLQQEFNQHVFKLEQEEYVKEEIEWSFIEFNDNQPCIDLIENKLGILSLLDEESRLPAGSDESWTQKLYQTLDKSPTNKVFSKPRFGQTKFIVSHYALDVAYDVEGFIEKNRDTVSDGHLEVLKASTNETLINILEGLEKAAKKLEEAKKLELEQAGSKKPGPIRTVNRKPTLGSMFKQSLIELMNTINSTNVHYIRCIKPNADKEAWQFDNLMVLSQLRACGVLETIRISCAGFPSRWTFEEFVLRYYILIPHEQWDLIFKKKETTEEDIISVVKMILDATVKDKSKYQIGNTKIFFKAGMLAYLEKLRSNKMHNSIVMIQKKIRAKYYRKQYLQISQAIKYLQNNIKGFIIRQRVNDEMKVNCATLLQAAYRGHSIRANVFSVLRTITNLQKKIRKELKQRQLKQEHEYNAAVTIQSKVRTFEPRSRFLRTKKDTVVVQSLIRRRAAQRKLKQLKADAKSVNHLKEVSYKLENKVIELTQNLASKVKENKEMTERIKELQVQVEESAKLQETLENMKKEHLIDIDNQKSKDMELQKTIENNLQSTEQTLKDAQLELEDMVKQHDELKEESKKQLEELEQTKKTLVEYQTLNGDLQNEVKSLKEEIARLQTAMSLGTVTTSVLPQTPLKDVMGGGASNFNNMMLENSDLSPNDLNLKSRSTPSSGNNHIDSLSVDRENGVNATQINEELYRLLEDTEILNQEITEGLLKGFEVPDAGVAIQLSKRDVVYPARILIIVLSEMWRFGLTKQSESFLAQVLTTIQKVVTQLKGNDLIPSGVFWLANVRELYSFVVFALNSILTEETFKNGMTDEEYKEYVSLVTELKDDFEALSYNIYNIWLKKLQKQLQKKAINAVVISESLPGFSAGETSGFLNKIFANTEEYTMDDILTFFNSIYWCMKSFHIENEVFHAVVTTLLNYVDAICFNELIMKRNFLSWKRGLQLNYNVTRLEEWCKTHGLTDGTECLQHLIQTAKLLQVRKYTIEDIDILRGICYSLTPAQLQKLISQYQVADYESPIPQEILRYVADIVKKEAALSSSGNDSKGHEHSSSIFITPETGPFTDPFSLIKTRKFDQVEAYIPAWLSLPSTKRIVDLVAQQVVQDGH

Results are given in words; binding and its absence hold for the method and conditions named. In cells and extracts the contact can be indirect. A yes stands for co-enrichment or nearness to the bait. Other partners may have been found. Where a sequence is shown, tags or fusion partners need not be part of it.

In the experiment the target is T1, Myc9-TEV2-His6-Smy2 (S. cerevisiae) (UniProt P32909).
T1 sequence: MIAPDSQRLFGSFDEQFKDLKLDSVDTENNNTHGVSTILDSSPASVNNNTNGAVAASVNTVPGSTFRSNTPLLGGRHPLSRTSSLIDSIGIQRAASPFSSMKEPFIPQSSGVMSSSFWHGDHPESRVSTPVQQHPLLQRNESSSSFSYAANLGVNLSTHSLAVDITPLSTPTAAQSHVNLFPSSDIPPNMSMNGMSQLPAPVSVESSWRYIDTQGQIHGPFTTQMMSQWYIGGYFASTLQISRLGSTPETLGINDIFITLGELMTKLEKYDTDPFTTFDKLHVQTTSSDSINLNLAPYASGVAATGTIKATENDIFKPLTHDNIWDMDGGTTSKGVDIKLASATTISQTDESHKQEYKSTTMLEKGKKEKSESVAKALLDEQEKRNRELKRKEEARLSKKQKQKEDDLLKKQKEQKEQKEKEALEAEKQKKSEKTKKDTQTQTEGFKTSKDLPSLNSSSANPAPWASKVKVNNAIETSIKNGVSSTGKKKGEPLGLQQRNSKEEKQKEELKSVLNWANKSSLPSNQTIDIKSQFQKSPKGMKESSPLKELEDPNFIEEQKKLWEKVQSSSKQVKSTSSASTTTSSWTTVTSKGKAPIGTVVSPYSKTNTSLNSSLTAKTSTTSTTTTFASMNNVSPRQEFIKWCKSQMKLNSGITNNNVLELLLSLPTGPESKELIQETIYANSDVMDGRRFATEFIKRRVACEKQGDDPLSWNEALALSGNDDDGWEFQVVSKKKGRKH
Briefly: affinity purification with mass spectrometry; two-step purification of Myc9-TEV2-His6-Smy2 from yeast extract: anti-Myc 9E10 protein G beads, washes with 500 mM potassium acetate, TEV release, nickel beads; eluate to LC/MS/MS; beads alone / untagged control.

For Cdc48 (from UniProt P25694 1-835), the binding entry is given as “binds”. Under Sec16 (from UniProt P48415 1-2195) stands “binds”; under Myo2 (from UniProt P19524 1-1574), “binds”.
